Data as given in PubChem BioAssay AID743454 (Peter MacCallum Cancer Centre, 2014)
This is an unselected part of about 18,000 deposited reagents. 450 of all reagents (2.5%) were called active. 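Single biological run; no consistent viability z cut-off exists, so the class columns, not z-scores, define the calls.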

Screen: 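Search for knock-downs that restore vorinostat killing in resistant colon cancer cells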 (primary screen)
Cells: human HCT116-VR colon cancer cells, selected for vorinostat resistance
Reagent: siRNA pool against human genes, 40 nM siRNA pool
Timing: vorinostat for 24 h, read-out about 72 h after transfection
Conditions: vorinostat at 2.5 µM final
Measured: 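Cell viability by CellTiter-Fluor and caspase 3/7 activity by luminescence, each scaled to mock wells per plate, duplicates averaged, then robust z-scored over all plates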
Scale: viability robust z-score: higher = more viable cells than screen typical; caspase robust z-score: higher = more caspase 3/7 activity than screen typical
Active means: 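Hits are knock-downs in viability class RV1/RV2 or caspase class CA1/CA2, excluding ones that killed cells in the no-drug cell-count arm; hits then retested with single siRNAs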

IRS1 | viability hit class: no change; caspase hit class: no change; viability robust z-score: -1.74; caspase robust z-score: 2.77; Outcome: inactive
ABHD17AP1 | viability hit class: no change; caspase hit class: no change; viability robust z-score: 0.18; caspase robust z-score: 0.72; Outcome: inactive
STARD5 | viability hit class: no change; caspase hit class: no change; viability robust z-score: 0.38; caspase robust z-score: -0.28; Outcome: inactive
BICC1 | viability hit class: no change; caspase hit class: no change; viability robust z-score: -0.12; caspase robust z-score: 1.16; Outcome: inactive
LGALS3 | viability hit class: no change; caspase hit class: no change; viability robust z-score: 0.28; caspase robust z-score: -0.98; Outcome: inactive
MICAL1 | viability hit class: no change; caspase hit class: no change; viability robust z-score: 1.76; caspase robust z-score: -0.85; Outcome: inactive
ZC2HC1C | viability hit class: no change; caspase hit class: no change; viability robust z-score: 1.33; caspase robust z-score: 1.28; Outcome: inactive
MYO16 | viability hit class: no change; caspase hit class: no change; viability robust z-score: -0.9; caspase robust z-score: -0.14; Outcome: inactive
TSSK6 | viability hit class: no change; caspase hit class: no change; viability robust z-score: 0.16; caspase robust z-score: 0.52; Outcome: inactive
CACNG3 | viability hit class: no change; caspase hit class: no change; viability robust z-score: -0.29; caspase robust z-score: 4.59; Outcome: inactive
TPT1 | viability hit class: no change; caspase hit class: no change; viability robust z-score: 0.92; caspase robust z-score: -1.12; Outcome: inactive
PPIG | viability hit class: no change; caspase hit class: no change; viability robust z-score: -0.31; caspase robust z-score: -0.16; Outcome: inactive
COL2A1 | viability hit class: no change; caspase hit class: no change; viability robust z-score: 0.76; caspase robust z-score: 0.4; Outcome: inactive
ESR1 | viability hit class: no change; caspase hit class: no change; viability robust z-score: 0.32; caspase robust z-score: -0.06; Outcome: inactive

Laid out differently: results already given.
{"gene": "BICC1", "viability hit class": "no change", "caspase hit class": "no change", "viability robust z-score": -0.12, "caspase robust z-score": 1.16, "Outcome": "inactive"}
{"gene": "LGALS3", "viability hit class": "no change", "caspase hit class": "no change", "viability robust z-score": 0.28, "caspase robust z-score": -0.98, "Outcome": "inactive"}
